Results reported in publication PMC10502114.
Results are given in words; binding and its absence hold for the method and conditions named. In cells and extracts the contact can be indirect. Some results given as binding are weak or reduced against the parent protein; the word gives no strength.

Amino acid sequences for entries named in this document (tags omitted).
UniProt Q7Z5J4: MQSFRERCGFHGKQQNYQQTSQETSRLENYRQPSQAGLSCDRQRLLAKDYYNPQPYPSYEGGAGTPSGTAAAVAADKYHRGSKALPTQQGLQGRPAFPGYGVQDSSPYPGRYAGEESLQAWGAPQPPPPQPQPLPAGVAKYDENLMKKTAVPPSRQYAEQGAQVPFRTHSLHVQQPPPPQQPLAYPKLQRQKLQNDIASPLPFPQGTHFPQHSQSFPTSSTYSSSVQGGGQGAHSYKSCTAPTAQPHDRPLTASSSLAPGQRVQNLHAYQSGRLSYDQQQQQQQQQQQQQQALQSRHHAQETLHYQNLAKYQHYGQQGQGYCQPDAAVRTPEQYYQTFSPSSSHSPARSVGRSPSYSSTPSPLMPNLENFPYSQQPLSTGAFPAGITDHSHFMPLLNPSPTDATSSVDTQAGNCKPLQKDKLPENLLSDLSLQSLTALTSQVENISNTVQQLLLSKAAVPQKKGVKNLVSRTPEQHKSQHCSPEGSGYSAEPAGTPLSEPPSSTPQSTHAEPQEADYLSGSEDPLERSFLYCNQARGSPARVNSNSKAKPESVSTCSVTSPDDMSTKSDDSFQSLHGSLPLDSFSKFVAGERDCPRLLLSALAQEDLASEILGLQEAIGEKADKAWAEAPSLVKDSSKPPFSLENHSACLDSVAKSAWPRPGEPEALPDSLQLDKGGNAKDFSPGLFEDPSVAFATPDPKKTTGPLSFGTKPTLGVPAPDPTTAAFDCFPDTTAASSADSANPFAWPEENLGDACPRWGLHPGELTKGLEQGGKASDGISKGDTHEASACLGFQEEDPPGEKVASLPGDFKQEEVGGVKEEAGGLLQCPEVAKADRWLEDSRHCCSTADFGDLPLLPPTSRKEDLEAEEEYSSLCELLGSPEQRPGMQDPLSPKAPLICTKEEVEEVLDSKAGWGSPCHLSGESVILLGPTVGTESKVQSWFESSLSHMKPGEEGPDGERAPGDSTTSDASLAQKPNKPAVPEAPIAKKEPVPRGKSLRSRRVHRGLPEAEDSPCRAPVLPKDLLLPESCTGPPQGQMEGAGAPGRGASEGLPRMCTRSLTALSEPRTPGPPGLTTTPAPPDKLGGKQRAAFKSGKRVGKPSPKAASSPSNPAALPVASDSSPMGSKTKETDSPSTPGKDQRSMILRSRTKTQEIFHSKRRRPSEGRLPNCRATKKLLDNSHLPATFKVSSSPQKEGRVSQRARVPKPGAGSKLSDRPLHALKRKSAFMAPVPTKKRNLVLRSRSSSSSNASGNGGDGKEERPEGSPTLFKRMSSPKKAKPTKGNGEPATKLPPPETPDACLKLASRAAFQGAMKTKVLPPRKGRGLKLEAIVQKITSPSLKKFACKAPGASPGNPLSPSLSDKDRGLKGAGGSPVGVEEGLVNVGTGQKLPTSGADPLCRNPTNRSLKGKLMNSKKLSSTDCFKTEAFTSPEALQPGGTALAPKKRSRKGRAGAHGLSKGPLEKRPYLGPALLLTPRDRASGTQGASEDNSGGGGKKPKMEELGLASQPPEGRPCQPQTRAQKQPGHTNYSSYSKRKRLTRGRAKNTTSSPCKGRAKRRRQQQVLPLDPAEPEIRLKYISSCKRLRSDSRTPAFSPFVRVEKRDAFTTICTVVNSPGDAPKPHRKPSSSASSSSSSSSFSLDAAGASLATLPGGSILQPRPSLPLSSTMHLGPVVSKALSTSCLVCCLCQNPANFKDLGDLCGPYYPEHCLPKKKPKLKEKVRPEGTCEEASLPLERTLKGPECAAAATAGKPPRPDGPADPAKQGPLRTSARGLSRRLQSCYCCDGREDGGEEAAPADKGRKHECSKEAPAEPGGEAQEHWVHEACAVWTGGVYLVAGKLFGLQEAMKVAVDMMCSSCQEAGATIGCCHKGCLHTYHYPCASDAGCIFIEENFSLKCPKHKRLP

B1: PHF14 (protein, UniProt O94880 1-948)
chain: MDRSSKRRQVKPLAASLLEALDYDSSDDSDFKVGDASDSEGSGNGSEDASKDSGEGSCSDSEENILEEELNEDIKVKEEQLKNSAEEEVLSSEKQLIKMEKKEEEENGERPRKKKEKEKEKEKEKEKEKEREKEKEKATVSENVAASAAATTPATSPPAVNTSPSVPTTTTATEEQVSEPKKWNLRRNRPLLDFVSMEELNDMDDYDSEDDNDWRPTVVKRKGRSASQKEGSDGDNEDDEDEGSGSDEDENDEGNDEDHSSPASEGGCKKKKSKVLSRNSADDEELTNDSLTLSQSKSNEDSLILEKSQNWSSQKMDHILICCVCLGDNSEDADEIIQCDNCGITVHEGCYGVDGESDSIMSSASENSTEPWFCDACKCGVSPSCELCPNQDGIFKETDAGRWVHIVCALYVPGVAFGDIDKLRPVTLTEMNYSKYGAKECSFCEDPRFARTGVCISCDAGMCRAYFHVTCAQKEGLLSEAAAEEDIADPFFAYCKQHADRLDRKWKRKNYLALQSYCKMSLQEREKQLSPEAQARINARLQQYRAKAELARSTRPQAWVPREKLPRPLTSSASAIRKLMRKAELMGISTDIFPVDNSDTSSSVDGRRKHKQPALTADFVNYYFERNMRMIQIQENMAEQKNIKDKLENEQEKLHVEYNKLCESLEELQNLNGKLRSEGQGIWALLGRITGQKLNIPAILRAPKERKPSKKEGGTQKTSTLPAVLYSCGICKKNHDQHLLLLCDTCKLHYHLGCLDPPLTRMPRKTKNSYWQCSECDQAGSSDMEADMAMETLPDGTKRSRRQIKEPVKFVPQDVPPEPKKIPIRNTRTRGRKRSFVPEEEKHEERVPRERRQRQSVLQKKPKAEDLRTECATCKGTGDNENLVRCDECRLCYHFGCLDPPLKKSPKQTGYGWICQECDSSSSKEDENEAERKNISQELNMEQKNPKK

Key:
[1] = target: lysine methyltransferase 2A (KMT2A) (human (endogenous in L3.6pl, L3.6sl, A13A)) (UniProt Q03164); assay: co-IP; endogenous proteins; anti-PHF5A Co-IP (L3.6pl, L3.6sl, HPDE6c7) or anti-KMT2A Co-IP (L3.6pl) from nuclear protein extracts of monolayer cultures lacking CSC enrichment; western blot
[2] = target: lysine methyltransferase 2A (KMT2A) (human (endogenous in L3.6pl, L3.6sl, A13A)) (UniProt Q03164); assay: co-IP; endogenous proteins; anti-PHF5A, anti-PHF14 or anti-KMT2A versus control IgG Co-IP from nuclear protein extracts of CSC-enriched tumorspheres (ABCG2+ L3.6pl, ABCG2+ L3.6sl, CD44+ L3.6sl, CD133+ A13A); Protein A/G agarose, western blot

Row | Molecule | binding [1] | binding [2]
1 | retinoic acid-induced 1 (RAI1) (from UniProt Q7Z5J4 1-1906) | no binding (condition: in L3.6pl monolayer cells) | binds
2 | B1 | no binding (condition: in L3.6pl monolayer cells) | binds
